PubChem BioAssay AID652243 – Drosophila RNAi Screening Center – 2013
In all, the deposit lists about 24,000 reagents; below is an unselected part of those that have a named target and a result. Over the whole deposit, 246 (1%) got an active call. 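Plates not normalised; calls are printed but the firefly/Renilla ratio behind them is not deposited; fold cut for lowering reported inconsistently.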 Raw values vary from plate to plate and are shown uncorrected. A number with no mark means an inactive call. Reagents against one gene are numbered here. Not given: the amount of reagent.

Aim: 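Fly genes required for human androgen receptor driven transcription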 (primary screen)
Cells: Drosophila S2R+ cells
Reagents: long dsRNA against Drosophila genes
Timing: 72 h (48 h, then 24 h hormone)
Challenge: synthetic androgen R1881 at 10 nM for 24 h
Detection: 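Per-well raw luminescence of the androgen-driven firefly reporter and of the Renilla control, two replicates each, without normalisation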
Scale: firefly reporter light: higher = more light from androgen-responsive reporter; Renilla control light: higher = more constitutive control signal (cell number, transfection)
Hit rule: 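Hit when the log firefly-to-Renilla ratio dropped or increased by a fixed fold versus the mean of GFP or LacZ controls across duplicate plates; lowering cut given as 1.5 and as 3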
Calls: active = hit: reporter lowered or raised; inactive = no hit

Depletion of CG9164 #1 gave: firefly reporter light, replicate 1 = 4.38e5; firefly reporter light, replicate 2 = 4.48e5; Renilla control light, replicate 1 = 8.25e5; Renilla control light, replicate 2 = 6.10e5.
CG9164 #2 gave firefly reporter light, replicate 1 = 1.29e5; firefly reporter light, replicate 2 = 1.23e5; Renilla control light, replicate 1 = 7.54e5; Renilla control light, replicate 2 = 7.95e5.
After knock-down of CG9164 #3, the record shows firefly reporter light, replicate 1 = 1.08e6; firefly reporter light, replicate 2 = 1.23e6; Renilla control light, replicate 1 = 1.41e6; Renilla control light, replicate 2 = 1.39e6.
After knock-down of l(2)37Cb #1, the screen gave firefly reporter light, replicate 1 = 1.09e6; firefly reporter light, replicate 2 = 7.20e5; Renilla control light, replicate 1 = 2.07e6; Renilla control light, replicate 2 = 1.96e6.
Knock-down of l(2)37Cb #2 came out at: firefly reporter light, replicate 1 = 7.89e5; firefly reporter light, replicate 2 = 1.34e6; Renilla control light, replicate 1 = 8.75e5; Renilla control light, replicate 2 = 9.94e5.
Against jtb the deposit lists firefly reporter light, replicate 1 = 68976; firefly reporter light, replicate 2 = 70117; Renilla control light, replicate 1 = 1.14e6; Renilla control light, replicate 2 = 1.14e6.
BobA showed firefly reporter light, replicate 1 = 3.24e5; firefly reporter light, replicate 2 = 1.84e5; Renilla control light, replicate 1 = 3.37e6; Renilla control light, replicate 2 = 2.32e6.
Against CG30265, the values are firefly reporter light, replicate 1 = 6.56e5; firefly reporter light, replicate 2 = 6.21e5; Renilla control light, replicate 1 = 1.81e6; Renilla control light, replicate 2 = 2.19e6.
After knock-down of CG4313 #1 the results were firefly reporter light, replicate 1 = 75103; firefly reporter light, replicate 2 = 67702; Renilla control light, replicate 1 = 5.12e5; Renilla control light, replicate 2 = 4.71e5.
For CG4313 #2 the deposit lists firefly reporter light, replicate 1 = 5.61e5; firefly reporter light, replicate 2 = 8.44e5; Renilla control light, replicate 1 = 1.00e6; Renilla control light, replicate 2 = 1.06e6.
Against Adgf-B #1 the deposit lists firefly reporter light, replicate 1 = 1.60e5; firefly reporter light, replicate 2 = 1.62e5; Renilla control light, replicate 1 = 1.84e6; Renilla control light, replicate 2 = 2.10e6.
Against Adgf-B #2, the entry reads firefly reporter light, replicate 1 = 9.05e5; firefly reporter light, replicate 2 = 8.29e5; Renilla control light, replicate 1 = 1.15e6; Renilla control light, replicate 2 = 1.06e6.
CG6933 scored firefly reporter light, replicate 1 = 69097; firefly reporter light, replicate 2 = 51498; Renilla control light, replicate 1 = 5.43e5; Renilla control light, replicate 2 = 3.29e5.
CG31482 scored firefly reporter light, replicate 1 = 57736; firefly reporter light, replicate 2 = 92239; Renilla control light, replicate 1 = 1.35e6; Renilla control light, replicate 2 = 1.28e6.
Against ppk #1 the deposit lists firefly reporter light, replicate 1 = 74944; firefly reporter light, replicate 2 = 87230; Renilla control light, replicate 1 = 1.23e6; Renilla control light, replicate 2 = 1.26e6.
Against ppk #2 the deposit lists firefly reporter light, replicate 1 = 4.05e5; firefly reporter light, replicate 2 = 5.38e5; Renilla control light, replicate 1 = 5.92e5; Renilla control light, replicate 2 = 5.29e5.
For Ir94a #1, the entry reads firefly reporter light, replicate 1 = 1.03e5; firefly reporter light, replicate 2 = 1.02e5; Renilla control light, replicate 1 = 1.85e5; Renilla control light, replicate 2 = 2.14e5.
For Ir94a #2 the deposit lists firefly reporter light, replicate 1 = 5.61e5; firefly reporter light, replicate 2 = 5.12e5; Renilla control light, replicate 1 = 1.32e6; Renilla control light, replicate 2 = 1.33e6.
For Jhbp14, the values are firefly reporter light, replicate 1 = 2.22e5; firefly reporter light, replicate 2 = 2.85e5; Renilla control light, replicate 1 = 1.97e6; Renilla control light, replicate 2 = 1.89e6.
CG10936 #1 showed firefly reporter light, replicate 1 = 1.36e5; firefly reporter light, replicate 2 = 1.35e5; Renilla control light, replicate 1 = 3.52e5; Renilla control light, replicate 2 = 3.10e5.
CG10936 #2 showed firefly reporter light, replicate 1 = 1.88e5; firefly reporter light, replicate 2 = 1.62e5; Renilla control light, replicate 1 = 4.83e5; Renilla control light, replicate 2 = 4.76e5.
CG10936 #3 scored firefly reporter light, replicate 1 = 71651; firefly reporter light, replicate 2 = 73161; Renilla control light, replicate 1 = 1.14e6; Renilla control light, replicate 2 = 1.14e6.
CG7730 scored firefly reporter light, replicate 1 = 52151; firefly reporter light, replicate 2 = 56620; Renilla control light, replicate 1 = 7.30e5; Renilla control light, replicate 2 = 6.33e5.
After knock-down of BNIP3, the record shows firefly reporter light, replicate 1 = 3.14e5; firefly reporter light, replicate 2 = 3.14e5; Renilla control light, replicate 1 = 3.11e6; Renilla control light, replicate 2 = 2.93e6.
After knock-down of CG6015 #1, the screen gave firefly reporter light, replicate 1 = 87013; firefly reporter light, replicate 2 = 1.01e5; Renilla control light, replicate 1 = 1.20e6; Renilla control light, replicate 2 = 1.27e6.
For CG6015 #2, the entry reads firefly reporter light, replicate 1 = 6.88e5; firefly reporter light, replicate 2 = 3.77e5; Renilla control light, replicate 1 = 1.39e6; Renilla control light, replicate 2 = 1.16e6.
Depletion of CR43999 (retired record) resulted in: firefly reporter light, replicate 1 = 2.19e5; firefly reporter light, replicate 2 = 2.42e5; Renilla control light, replicate 1 = 3.18e6; Renilla control light, replicate 2 = 3.27e6.

Part of the list above in another layout.
| target gene | reagent no. | firefly reporter light, replicate 1 | firefly reporter light, replicate 2 | Renilla control light, replicate 1 | Renilla control light, replicate 2 |
| --- | --- | --- | --- | --- | --- |
| Adgf-B | 1 | 1.60e5 | 1.62e5 | 1.84e6 | 2.10e6 |
| Adgf-B | 2 | 9.05e5 | 8.29e5 | 1.15e6 | 1.06e6 |
| CG6933 | 1 | 69097 | 51498 | 5.43e5 | 3.29e5 |
| CG31482 | 1 | 57736 | 92239 | 1.35e6 | 1.28e6 |
| ppk | 1 | 74944 | 87230 | 1.23e6 | 1.26e6 |
